The target of the assay is SLC7A11 immunoprecipitated from HEK293 cells overexpressing CCDC7_(19-13) (human (endogenous in HEK293)) (UniProt Q9UPY5). Briefly: affinity purification with mass spectrometry; SLC7A11 immunoprecipitates from HEK293 cells overexpressing CCDC7_(19-13).

Sequences of proteins named here, by UniProt entry; tags and fusion partners are left off.
UniProt Q9UPY5: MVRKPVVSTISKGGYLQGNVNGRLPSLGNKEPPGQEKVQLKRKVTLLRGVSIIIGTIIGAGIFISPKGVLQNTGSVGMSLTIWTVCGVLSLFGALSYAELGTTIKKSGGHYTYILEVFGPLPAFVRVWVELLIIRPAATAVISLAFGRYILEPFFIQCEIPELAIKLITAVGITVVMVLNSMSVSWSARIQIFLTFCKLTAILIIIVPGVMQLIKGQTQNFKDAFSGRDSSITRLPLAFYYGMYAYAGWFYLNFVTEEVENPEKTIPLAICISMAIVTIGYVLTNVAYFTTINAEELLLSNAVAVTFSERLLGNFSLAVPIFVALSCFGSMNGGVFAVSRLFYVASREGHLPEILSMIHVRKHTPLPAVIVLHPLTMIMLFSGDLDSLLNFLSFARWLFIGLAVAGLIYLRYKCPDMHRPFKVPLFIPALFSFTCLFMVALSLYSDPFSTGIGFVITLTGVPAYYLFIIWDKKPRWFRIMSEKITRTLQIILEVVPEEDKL
UniProt P19474: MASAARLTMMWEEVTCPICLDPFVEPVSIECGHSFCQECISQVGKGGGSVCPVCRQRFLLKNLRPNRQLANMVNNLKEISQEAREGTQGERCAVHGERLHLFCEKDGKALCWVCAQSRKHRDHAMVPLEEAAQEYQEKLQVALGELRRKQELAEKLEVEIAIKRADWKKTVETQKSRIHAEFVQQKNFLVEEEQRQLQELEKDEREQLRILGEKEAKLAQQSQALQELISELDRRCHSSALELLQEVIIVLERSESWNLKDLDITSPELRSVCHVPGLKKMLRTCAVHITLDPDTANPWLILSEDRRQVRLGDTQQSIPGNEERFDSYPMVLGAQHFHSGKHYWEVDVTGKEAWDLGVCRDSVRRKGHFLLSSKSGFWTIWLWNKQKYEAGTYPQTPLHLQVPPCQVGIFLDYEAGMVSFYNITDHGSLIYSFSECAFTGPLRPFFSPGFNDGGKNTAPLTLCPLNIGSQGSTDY

These are yes or no findings as the source states them, for the method shown. Binding seen in cells or lysates may run through a third protein. Here binding means that the protein was enriched with, or labelled near, the bait; the list need not be complete.

We go through one substance from publication PMC13035864.

As to “TRIM21 in HEK293 cells overexpressing CCDC7_(19-13) (from UniProt P19474 1-475) (enzyme)”, the binding result was “binds”.
